The other results are listed elsewhere or left out.

Chains of the proteins cited; added tags and fusions are not shown. Lines headed by an entry give the natural chain unless they say otherwise; changes in a name come on top.
UniProt Q6PI48: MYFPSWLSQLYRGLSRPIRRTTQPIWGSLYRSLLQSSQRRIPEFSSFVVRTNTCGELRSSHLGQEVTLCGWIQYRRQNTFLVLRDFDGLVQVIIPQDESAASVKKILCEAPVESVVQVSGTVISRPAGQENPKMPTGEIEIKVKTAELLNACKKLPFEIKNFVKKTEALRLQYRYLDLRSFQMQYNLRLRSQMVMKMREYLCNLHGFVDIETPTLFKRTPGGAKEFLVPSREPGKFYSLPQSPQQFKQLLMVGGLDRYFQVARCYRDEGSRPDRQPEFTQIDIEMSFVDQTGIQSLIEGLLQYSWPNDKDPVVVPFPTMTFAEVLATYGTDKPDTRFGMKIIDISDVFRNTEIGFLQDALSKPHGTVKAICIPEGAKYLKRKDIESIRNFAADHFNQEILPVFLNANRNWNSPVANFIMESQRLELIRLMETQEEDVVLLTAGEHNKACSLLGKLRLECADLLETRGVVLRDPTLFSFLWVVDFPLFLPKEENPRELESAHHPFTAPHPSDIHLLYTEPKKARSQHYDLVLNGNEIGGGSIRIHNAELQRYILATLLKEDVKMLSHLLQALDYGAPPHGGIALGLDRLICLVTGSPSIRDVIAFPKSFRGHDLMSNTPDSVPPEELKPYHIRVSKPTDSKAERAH
UniProt Q14203, whole entry, looked up: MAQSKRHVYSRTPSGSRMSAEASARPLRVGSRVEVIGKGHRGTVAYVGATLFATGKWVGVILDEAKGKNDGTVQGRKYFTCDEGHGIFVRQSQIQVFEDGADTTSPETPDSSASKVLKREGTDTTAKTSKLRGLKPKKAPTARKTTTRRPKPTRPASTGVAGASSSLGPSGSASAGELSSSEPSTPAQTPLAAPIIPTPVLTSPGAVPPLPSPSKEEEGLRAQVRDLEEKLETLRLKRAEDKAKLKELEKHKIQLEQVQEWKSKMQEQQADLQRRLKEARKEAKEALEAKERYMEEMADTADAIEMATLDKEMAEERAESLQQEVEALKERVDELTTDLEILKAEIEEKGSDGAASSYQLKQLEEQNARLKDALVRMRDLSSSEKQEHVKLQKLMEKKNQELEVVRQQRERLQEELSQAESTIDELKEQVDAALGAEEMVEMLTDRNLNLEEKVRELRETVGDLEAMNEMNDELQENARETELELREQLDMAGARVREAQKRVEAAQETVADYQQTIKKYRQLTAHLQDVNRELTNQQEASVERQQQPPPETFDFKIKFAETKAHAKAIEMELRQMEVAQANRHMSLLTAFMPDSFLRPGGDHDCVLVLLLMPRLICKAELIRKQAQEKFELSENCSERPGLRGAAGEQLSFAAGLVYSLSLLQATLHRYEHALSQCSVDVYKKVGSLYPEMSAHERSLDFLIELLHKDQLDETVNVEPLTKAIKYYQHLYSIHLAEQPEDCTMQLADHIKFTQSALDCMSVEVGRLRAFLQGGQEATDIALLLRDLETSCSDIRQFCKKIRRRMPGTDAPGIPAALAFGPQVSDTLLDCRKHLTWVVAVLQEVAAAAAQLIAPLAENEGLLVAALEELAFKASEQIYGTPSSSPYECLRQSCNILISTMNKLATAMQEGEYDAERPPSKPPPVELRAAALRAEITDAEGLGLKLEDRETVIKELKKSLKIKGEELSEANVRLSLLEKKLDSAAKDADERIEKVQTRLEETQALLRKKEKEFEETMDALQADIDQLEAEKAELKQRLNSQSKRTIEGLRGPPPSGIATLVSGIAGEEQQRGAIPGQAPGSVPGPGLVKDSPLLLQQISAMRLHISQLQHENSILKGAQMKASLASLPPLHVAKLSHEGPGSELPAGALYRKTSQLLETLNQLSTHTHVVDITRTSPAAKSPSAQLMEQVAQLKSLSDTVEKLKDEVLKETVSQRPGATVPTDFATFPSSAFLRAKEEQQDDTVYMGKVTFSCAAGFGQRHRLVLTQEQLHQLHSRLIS
UniProt Q9NV06: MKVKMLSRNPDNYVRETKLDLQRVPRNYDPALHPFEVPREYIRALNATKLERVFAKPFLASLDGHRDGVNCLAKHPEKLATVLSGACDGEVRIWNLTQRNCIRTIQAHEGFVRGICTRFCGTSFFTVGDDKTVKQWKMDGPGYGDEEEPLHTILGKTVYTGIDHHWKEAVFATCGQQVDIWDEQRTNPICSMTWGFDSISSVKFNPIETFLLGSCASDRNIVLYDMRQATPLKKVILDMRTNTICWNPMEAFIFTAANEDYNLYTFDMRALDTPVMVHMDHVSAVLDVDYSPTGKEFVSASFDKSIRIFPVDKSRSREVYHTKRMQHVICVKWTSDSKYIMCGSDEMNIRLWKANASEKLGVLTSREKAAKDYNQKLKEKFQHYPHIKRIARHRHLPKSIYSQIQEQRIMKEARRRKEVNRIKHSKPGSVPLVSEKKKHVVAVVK
UniProt Q9UBR2: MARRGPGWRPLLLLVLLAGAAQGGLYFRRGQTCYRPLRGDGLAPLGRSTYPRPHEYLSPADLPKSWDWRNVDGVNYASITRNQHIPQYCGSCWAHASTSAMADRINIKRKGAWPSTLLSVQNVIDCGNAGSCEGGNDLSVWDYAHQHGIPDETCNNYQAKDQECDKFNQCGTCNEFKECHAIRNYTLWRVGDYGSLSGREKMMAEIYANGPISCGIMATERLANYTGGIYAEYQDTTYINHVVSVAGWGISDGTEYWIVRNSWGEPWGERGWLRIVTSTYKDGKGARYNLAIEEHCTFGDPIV
UniProt Q96SD1, whole entry, looked up: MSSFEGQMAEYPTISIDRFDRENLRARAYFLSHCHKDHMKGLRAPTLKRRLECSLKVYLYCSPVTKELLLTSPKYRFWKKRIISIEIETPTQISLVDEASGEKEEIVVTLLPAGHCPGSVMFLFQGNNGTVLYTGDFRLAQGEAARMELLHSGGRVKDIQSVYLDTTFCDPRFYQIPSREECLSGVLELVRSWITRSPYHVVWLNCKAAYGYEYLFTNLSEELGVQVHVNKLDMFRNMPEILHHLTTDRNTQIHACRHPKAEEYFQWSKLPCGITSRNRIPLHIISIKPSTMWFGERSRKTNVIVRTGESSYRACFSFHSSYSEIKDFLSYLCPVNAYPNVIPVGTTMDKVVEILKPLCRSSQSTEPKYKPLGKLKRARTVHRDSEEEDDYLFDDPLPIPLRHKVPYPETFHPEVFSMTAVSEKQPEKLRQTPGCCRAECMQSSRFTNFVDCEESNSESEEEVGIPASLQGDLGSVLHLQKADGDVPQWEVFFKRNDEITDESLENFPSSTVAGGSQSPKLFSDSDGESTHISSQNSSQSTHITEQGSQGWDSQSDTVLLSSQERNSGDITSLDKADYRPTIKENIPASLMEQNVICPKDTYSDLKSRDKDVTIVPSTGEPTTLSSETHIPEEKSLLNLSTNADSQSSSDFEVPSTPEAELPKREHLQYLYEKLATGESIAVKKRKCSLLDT
UniProt Q13620, whole entry, looked up: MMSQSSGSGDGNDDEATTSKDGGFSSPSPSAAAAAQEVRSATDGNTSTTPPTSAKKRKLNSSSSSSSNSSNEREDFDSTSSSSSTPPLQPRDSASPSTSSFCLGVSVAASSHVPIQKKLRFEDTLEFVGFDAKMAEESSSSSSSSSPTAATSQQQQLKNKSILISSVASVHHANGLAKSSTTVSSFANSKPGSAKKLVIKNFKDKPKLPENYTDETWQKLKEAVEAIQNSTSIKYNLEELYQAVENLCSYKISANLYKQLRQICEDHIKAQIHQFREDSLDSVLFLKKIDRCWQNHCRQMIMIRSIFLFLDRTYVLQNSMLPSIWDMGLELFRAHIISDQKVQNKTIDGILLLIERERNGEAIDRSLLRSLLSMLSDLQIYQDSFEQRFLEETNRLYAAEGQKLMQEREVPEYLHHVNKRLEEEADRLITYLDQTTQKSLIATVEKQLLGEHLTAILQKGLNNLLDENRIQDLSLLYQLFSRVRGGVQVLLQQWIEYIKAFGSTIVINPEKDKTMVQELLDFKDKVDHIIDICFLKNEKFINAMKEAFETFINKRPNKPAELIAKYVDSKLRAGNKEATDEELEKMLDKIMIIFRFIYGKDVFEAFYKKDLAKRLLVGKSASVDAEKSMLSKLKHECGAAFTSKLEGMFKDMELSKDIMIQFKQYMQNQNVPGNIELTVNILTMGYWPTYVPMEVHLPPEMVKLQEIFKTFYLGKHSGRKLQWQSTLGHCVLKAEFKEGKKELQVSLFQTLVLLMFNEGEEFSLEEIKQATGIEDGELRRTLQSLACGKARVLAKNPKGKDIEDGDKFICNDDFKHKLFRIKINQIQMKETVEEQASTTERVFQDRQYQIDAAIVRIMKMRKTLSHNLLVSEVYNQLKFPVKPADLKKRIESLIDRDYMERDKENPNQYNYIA
UniProt Q7L576: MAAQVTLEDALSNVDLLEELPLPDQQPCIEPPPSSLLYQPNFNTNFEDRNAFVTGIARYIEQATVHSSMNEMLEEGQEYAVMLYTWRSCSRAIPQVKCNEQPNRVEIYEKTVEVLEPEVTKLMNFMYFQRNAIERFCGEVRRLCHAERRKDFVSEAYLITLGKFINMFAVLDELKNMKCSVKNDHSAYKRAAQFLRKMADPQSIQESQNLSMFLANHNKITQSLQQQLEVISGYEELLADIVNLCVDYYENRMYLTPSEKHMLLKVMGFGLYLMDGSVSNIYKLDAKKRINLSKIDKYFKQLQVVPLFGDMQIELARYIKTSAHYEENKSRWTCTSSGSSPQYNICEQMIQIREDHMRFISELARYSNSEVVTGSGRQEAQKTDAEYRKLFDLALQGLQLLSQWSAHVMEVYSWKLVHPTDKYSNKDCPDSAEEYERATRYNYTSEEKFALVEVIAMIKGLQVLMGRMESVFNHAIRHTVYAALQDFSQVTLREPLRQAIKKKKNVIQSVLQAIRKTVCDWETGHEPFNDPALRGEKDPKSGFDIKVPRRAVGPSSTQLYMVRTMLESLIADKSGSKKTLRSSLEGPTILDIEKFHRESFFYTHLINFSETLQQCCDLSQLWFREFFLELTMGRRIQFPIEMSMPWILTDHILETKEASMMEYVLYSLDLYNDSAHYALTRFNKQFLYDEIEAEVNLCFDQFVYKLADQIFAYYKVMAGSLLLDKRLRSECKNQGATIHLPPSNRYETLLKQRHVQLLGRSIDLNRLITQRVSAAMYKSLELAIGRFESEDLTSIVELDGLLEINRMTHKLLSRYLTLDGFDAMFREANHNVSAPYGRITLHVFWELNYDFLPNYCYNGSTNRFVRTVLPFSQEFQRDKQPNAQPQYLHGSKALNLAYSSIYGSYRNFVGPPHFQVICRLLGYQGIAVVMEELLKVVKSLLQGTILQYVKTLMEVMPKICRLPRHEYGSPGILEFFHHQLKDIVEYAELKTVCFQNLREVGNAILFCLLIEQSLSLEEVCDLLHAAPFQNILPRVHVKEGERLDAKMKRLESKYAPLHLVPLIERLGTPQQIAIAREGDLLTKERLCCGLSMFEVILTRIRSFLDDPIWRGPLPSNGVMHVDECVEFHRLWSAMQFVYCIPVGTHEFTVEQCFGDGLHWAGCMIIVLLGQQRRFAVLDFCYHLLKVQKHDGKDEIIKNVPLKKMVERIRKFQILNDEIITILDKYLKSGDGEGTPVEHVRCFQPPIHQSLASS
UniProt Q9UJW0, whole entry, looked up: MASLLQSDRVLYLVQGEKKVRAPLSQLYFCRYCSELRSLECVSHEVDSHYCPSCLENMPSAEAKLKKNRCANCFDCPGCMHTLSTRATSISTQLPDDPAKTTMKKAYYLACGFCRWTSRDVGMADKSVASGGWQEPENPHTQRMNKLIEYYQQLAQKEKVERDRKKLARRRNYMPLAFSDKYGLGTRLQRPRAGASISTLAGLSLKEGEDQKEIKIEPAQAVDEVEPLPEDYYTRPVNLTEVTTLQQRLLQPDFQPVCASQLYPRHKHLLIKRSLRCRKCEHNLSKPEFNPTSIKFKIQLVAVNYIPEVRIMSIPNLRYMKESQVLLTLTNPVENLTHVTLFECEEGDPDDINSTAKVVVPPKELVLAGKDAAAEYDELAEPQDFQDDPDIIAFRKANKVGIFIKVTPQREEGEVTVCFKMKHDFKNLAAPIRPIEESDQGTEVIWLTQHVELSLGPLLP
UniProt P25774, whole entry, looked up: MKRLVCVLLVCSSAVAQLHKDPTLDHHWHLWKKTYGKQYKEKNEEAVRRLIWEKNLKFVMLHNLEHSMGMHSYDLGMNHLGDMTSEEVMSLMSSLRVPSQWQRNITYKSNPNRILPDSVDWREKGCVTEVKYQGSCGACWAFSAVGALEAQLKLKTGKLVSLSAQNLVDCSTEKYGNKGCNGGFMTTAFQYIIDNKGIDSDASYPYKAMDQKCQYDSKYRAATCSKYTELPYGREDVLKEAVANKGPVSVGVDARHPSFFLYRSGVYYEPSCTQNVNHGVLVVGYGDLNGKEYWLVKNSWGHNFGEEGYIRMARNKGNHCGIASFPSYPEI

Compound in the experiment: CC1Cc2ccccc2N1C(=O)C1CCCN(C1)C(=O)CCl (mixture of isomers) [TRIM25 ligand 11 (diastereomer mixture)]
Kind of experiment: probe-labelled cysteine peptide fold change vs DMSO (competition) (log2 fold change); higher = less target engagement (more negative = stronger competition). To be noted: THP-1, incubation time: 4 h.
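Note: competitive chemoproteomic profiling in live THP-1 cells with an iodoacetamide desthiobiotin (IA-DTB) probe, comparing probe-labelled peptide intensities in compound-treated cells against DMSO-treated controls.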

On to “DARS2_Q6PI48_202_MREYLCNLHGFVDIETPTLFK (UniProt Q6PI48)”, for which the “probe-labelled cysteine peptide fold change” value (10 µM) is -0.00596 and the “probe-labelled cysteine peptide fold change” value (50 µM) was 0.0625.
The like results for “CTU2_Q2VPK5_457_REDPQACIEEQLCYSCR (UniProt Q2VPK5)” were, in that order, -0.0571 and 0.0269.
The like results for “DCTN1_Q14203_791_DLETSCSDIR (UniProt Q14203)” were, in that order, 0.0145 and 0.113.
Taken in the same sequence, the figures for “CYB5R3_P00387_204_AIMKDPDDHTVCHLLFANQTEK (UniProt P00387)” were -0.116 and -0.072.
Take “DCAF13_Q9NV06_190_TNPICSMTWGFDSISSVK (UniProt Q9NV06)”: the “probe-labelled cysteine peptide fold change” value is 0.052 (10 µM) and -0.112 (50 µM).
The like results for “CYB5R3_P00387_274_DHLPPPEEEPLVLMCGPPPMIQYACLPNLDHVGHPTER (UniProt P00387)” were, in that order, 0.0315 and -0.0387.
Taken in the same sequence, the figures for CTSZ_Q9UBR2_164_DQECDK (UniProt Q9UBR2) were -0.0808 and -0.0718.
Taken in the same sequence, the figures for “CTSA_P10619_241_LWSSLQTHCCSQNK (UniProt P10619)” were -0.0187 and -0.112.
For the target “DCLRE1C_Q96SD1_34_AYFLSHCHK (UniProt Q96SD1)”, the “probe-labelled cysteine peptide fold change” value is, setting by setting: (10 µM) 0.0604; (50 µM) -0.0702.
On to “CTR9_Q6PD62_511_LYEAMCEFHEAEK (UniProt Q6PD62)”, for which the “probe-labelled cysteine peptide fold change” value is -6.99e-06 (10 µM) and 0.00546 (50 µM).
The like results for “DCTN1_Q14203_893_QSCNILISTMNK (UniProt Q14203)” were, in that order, 0.0153 and 0.141.
Taken in the same sequence, the figures for “CTR9_Q6PD62_363_ENASQCFEK (UniProt Q6PD62)” were 0.0576 and 0.18.
Taken in the same sequence, the figures for “CUL4B_Q13620_810_FICNDDFK (UniProt Q13620)” were 0.0282 and -0.0604.
Turning to “DARS2_Q6PI48_54_TNTCGELR (UniProt Q6PI48)”, the “probe-labelled cysteine peptide fold change” value (10 µM) amounted to 0.108 and the “probe-labelled cysteine peptide fold change” value (50 µM) was 0.189.
Taken in the same sequence, the figures for “CUL4A_Q13619_289_VITYLDHSTQKPLIACVEK (UniProt Q13619)” were -0.36 and -0.171.
Taken in the same sequence, the figures for “CYTH1_Q15438_323_KPNCFELYIPDNK (UniProt Q15438)” were 0.0705 and -0.0122.
The like results for “DBNL_Q9UJU6_97_KGACASHVSTMASFLK (UniProt Q9UJU6)” were, in that order, -0.0713 and -0.568.
For the target “CYFIP1_Q7L576_519_TVCDWETGHEPFNDPALR (UniProt Q7L576)”, the “probe-labelled cysteine peptide fold change” value is, setting by setting: (10 µM) 0.0504; (50 µM) 0.114.
The like results for “CYFIP1_Q7L576_428_DCPDSAEEYER (UniProt Q7L576)” were, in that order, 0.0662 and 0.0256.
The like results for “CUL4B_Q13620_533_DKVDHIIDICFLK (UniProt Q13620)” were, in that order, 0.126 and 0.16.
The like results for “CWC27_Q6UX04_164_SCEVLFNPFDDIIPR (UniProt Q6UX04)” were, in that order, -0.0154 and -0.0699.
Regarding “CXXC1_Q9P0U4_181+187_TEDCGHCDFCR (UniProt Q9P0U4)”, the “probe-labelled cysteine peptide fold change” value (10 µM) is -0.0772 and the “probe-labelled cysteine peptide fold change” value (50 µM) was -0.0846.
The like results for “DCAF10_Q5QP82_102_RPGPDCR (UniProt Q5QP82)” were, in that order, -0.169 and -0.199.
The like results for “DCAF6_Q58WW2_513_GIGSHCK (UniProt Q58WW2)” were, in that order, 0.0159 and -0.114.
Taken in the same sequence, the figures for “CXorf56_Q9H5V9_69_FCNTEDEETMYLR (UniProt Q9H5V9)” were -0.146 and -0.104.
As to “DCLRE1C_Q96SD1_333_DFLSYLCPVNAYPNVIPVGTTMDK (UniProt Q96SD1)”, the “probe-labelled cysteine peptide fold change” value runs as follows: (10 µM) -0.0709; (50 µM) 0.051.
Taken in the same sequence, the figures for “DCTN4_Q9UJW0_280_CEHNLSKPEFNPTSIK (UniProt Q9UJW0)” were 0.246 and 0.175.
As for “CTSZ_Q9UBR2_214_MMAEIYANGPISCGIMATER (UniProt Q9UBR2)”, the “probe-labelled cysteine peptide fold change” value runs as follows: (10 µM) 0.337; (50 µM) -0.319.
As to “CYTH4_Q9UIA0_49_LKDEIADVFAQIDCFESAEESR (UniProt Q9UIA0)”, the “probe-labelled cysteine peptide fold change” value came out at 0.1 (10 µM) and 0.321 (50 µM).
Taken in the same sequence, the figures for “DARS_P14868_259_QMCICADFEK (UniProt P14868)” were 0.098 and 0.0803.
For “DCAF15_Q66K64_211_AHPGDPNAQCLR (UniProt Q66K64)”, the “probe-labelled cysteine peptide fold change” value is, setting by setting: (10 µM) 0.202; (50 µM) 0.268.
The like results for “CTSS_P25774_320_GNHCGIASFPSYPEI (UniProt P25774)” were, in that order, 0.013 and 0.223.
The like results for “DBT_P11182_279_IPHFGYCDEIDLTELVK (UniProt P11182)” were, in that order, 0.0359 and -0.0407.
Taken in the same sequence, the figures for “DAZAP1_Q96EP5_124_IFVGGIPHNCGETELR (UniProt Q96EP5)” were 0.128 and 0.188.
With “DCAF13_Q9NV06_71_DGVNCLAK (UniProt Q9NV06)”, the “probe-labelled cysteine peptide fold change” value is, setting by setting: (10 µM) -0.0414; (50 µM) -0.0669.
“CUL5_Q93034_281_ETILAECQGMIK (UniProt Q93034)”: the “probe-labelled cysteine peptide fold change” value was 0.0517 (10 µM) and -0.109 (50 µM).
The like results for “CXXC1_Q9P0U4_486_QQAVREDEESNEGDSDDTDLQIFCVSCGHPINPR (UniProt Q9P0U4)” were, in that order, 0.224 and -0.209.
“CXCR2_P25025_286_TQVIQETCER (UniProt P25025)”: the “probe-labelled cysteine peptide fold change” value is, setting by setting: (10 µM) 0.104; (50 µM) 0.088.
The like results for “CXXC1_Q9P0U4_175_MCGECEACR (UniProt Q9P0U4)” were, in that order, -0.0677 and 0.209.

These data come from the supplement of paper PMC12067093, “Discovery and optimisation of a covalent ligand for TRIM25 and its application to targeted protein ubiquitination” (Chemical Science, 2025).
